{"source": "patent US20080025968A1", "binders": {"B1": {"name": "myc-aly NIK (human NIK with the G860R mutation corresponding to the mouse aly mutation) (enzyme)", "chain": "EQKLISEEDLMAVMEMACPGAPGSAVGQQKELPKPKEKTPPLGKKQSSVYKLEAVEKSPVFCGKWEILNDVITKGTAKEGSEAGPAAISIIAQAECENSQEFSPTFSERIFIAGSKQYSQSESLDQIPNNVAHATEGKMARVCWKGKRRSKARKKRKKKSSKSLAHAGVALAKPLPRTPEQESCTIPVQEDESPLGAPYVRNTPQFTKPLKEPGLGQLCFKQLGEGLRPALPRSELHKLISPLQCLNHVWKLHHPQDGGPLPLPTHPFPYSRLPHPFPFHPLQPWKPHPLESFLGKLACVDSQKPLPDPHLSKLACVDSPKPLPGPHLEPSCLSRGAHEKFSVEEYLVHALQGSVSSSQAHSLTSLAKTWAARGSRSREPSPKTEDNEGVLLTEKLKPVDYEYREEVHWATHQLRLGRGSFGEVHRMEDKQTGFQCAVKKVRLEVFRAEELMACAGLTSPRIVPLYGAVREGPWVNIFMELLEGGSLGQLVKEQGCLPEDRALYYLGQALEGLEYLHSRRILHGDVKADNVLLSSDGSHAALCDFGHAVCLQPDGLGKSLLTGDYIPGTETHMAPEVVLGRSCDAKVDVWSSCCMMLHMLNGCHPWTQFFRGPLCLKIASEPPPVREIPPSCAPLTAQAIQEGLRKEPIHRVSAAELGGKVNRALQQVGGLKSPWRGEYKEPRHPPPNQANYHQTLHAQPRELSPRAPGPRPAEETTGRAPKLQPPLPPEPPEPNKSPPLTLSKEESGMWEPLPLSSLEPAPARNPSSPERKATVPEQELQQLEIELFLNSLSQPFSLEEQEQILSCLSIDSLSLSDDSEKNPSKASQSSRDTLSSGVHSWSSQAEARSSSWNMVLARGRPTDTPSYFNRVKVQIQSLNGEHLHIREFHRVKVGDIATGISSQIPAAAFSLVTKDGQPVRYDMEVPDSGIDLQCTLAPDGSFAWSWRVKHGQLENRP"}}, "key": {"[1]": {"biological_target": "T1, HIS-SIVA1 (human SIVA1 in pcDNA3.1-HIS) (human) (UniProt O15304)", "T1 sequence": "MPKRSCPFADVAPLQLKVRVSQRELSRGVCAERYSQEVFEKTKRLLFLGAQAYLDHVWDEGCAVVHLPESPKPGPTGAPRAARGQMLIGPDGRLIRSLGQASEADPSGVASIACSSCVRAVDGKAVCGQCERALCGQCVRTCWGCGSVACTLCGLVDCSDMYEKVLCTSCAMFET", "assay": "co-immunoprecipitation from transfected HEK293 cells"}, "[2]": {"biological_target": "T1, HIS-SIVA1 (human SIVA1 in pcDNA3.1-HIS) (human)", "assay": "co-immunoprecipitation from transfected HEK293T cells"}}, "note": "Results are given in words; binding and its absence hold for the method and conditions named. Binding seen in cells or lysates may run through a third protein. Some binding calls cover weakened binding; strength is not graded here. Sequences can lack the tags named with a protein."}
{"binder": "B1", "values": [{"measurement": "binding", "setting": "[1]", "result": "binds"}, {"measurement": "binding", "setting": "[2]", "result": "binds"}]}
